Like-named read-outs stand apart in the source and are kept apart here. These are yes or no findings as the source states them, for the method shown. For part of these data: Binding seen in cells or lysates may run through a third protein. Some binding calls cover weakened binding; strength is not graded here.
Assays:
[1] = biological target: TopBP1, endogenous (human (endogenous in U2OS and N/Tert-1)) (UniProt Q92547); experiment: co-IP
[2] = biological target: TopBP1, endogenous (human (endogenous in U2OS and N/Tert-1)) (UniProt Q92547); experiment: co-IP; remark: listed apart in the source
[3] = biological target: TopBP1, endogenous (human (endogenous in U2OS and N/Tert-1)) (UniProt Q92547); experiment: co-IP; remark: listed apart in the source
[4] = biological target: GST-NEDD4 control protein (UniProt P46934); experiment: pull-down

Sequences of proteins named here, by UniProt entry; tags and fusion partners are left off. A change or cut given only in a name is not applied to a line headed by its entry.
UniProt Q92547, whole entry: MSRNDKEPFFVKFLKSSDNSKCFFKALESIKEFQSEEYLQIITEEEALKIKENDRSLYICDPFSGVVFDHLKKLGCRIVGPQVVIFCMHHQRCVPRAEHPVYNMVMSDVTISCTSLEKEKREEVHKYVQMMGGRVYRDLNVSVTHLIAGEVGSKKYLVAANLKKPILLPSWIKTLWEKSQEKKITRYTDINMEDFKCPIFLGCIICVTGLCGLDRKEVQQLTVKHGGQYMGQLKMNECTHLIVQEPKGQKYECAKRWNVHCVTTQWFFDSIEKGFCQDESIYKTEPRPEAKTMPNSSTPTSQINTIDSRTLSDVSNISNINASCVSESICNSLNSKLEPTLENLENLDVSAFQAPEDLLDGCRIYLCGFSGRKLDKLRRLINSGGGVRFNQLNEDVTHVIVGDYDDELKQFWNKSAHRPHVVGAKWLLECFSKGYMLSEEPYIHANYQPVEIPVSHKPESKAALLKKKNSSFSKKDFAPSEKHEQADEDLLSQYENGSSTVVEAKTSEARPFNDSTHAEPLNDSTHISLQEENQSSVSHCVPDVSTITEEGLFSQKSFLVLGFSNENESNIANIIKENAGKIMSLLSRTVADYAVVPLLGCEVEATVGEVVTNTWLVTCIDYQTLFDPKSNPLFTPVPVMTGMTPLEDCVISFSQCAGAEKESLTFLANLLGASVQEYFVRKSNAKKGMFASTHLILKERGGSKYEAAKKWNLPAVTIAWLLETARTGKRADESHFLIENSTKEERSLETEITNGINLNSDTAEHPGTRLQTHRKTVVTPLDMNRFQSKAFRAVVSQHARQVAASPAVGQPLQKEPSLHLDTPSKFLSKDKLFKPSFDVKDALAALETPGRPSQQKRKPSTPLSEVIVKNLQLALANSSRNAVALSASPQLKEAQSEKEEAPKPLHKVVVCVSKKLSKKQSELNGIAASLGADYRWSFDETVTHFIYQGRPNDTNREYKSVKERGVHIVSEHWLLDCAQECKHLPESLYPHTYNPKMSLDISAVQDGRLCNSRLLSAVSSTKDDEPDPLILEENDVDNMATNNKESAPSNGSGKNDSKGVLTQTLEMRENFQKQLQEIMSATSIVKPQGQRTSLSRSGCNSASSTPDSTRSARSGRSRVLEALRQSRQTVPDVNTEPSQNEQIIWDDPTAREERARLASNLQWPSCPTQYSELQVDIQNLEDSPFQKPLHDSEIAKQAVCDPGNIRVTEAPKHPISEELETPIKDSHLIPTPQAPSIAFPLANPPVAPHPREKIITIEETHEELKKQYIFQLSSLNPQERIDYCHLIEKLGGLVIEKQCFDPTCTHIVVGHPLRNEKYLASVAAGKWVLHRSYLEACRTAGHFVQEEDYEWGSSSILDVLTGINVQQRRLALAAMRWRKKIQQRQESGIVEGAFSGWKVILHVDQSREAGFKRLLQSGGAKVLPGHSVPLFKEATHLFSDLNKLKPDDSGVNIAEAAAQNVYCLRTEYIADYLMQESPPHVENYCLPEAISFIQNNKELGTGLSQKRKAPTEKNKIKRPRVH
UniProt P46934, whole entry: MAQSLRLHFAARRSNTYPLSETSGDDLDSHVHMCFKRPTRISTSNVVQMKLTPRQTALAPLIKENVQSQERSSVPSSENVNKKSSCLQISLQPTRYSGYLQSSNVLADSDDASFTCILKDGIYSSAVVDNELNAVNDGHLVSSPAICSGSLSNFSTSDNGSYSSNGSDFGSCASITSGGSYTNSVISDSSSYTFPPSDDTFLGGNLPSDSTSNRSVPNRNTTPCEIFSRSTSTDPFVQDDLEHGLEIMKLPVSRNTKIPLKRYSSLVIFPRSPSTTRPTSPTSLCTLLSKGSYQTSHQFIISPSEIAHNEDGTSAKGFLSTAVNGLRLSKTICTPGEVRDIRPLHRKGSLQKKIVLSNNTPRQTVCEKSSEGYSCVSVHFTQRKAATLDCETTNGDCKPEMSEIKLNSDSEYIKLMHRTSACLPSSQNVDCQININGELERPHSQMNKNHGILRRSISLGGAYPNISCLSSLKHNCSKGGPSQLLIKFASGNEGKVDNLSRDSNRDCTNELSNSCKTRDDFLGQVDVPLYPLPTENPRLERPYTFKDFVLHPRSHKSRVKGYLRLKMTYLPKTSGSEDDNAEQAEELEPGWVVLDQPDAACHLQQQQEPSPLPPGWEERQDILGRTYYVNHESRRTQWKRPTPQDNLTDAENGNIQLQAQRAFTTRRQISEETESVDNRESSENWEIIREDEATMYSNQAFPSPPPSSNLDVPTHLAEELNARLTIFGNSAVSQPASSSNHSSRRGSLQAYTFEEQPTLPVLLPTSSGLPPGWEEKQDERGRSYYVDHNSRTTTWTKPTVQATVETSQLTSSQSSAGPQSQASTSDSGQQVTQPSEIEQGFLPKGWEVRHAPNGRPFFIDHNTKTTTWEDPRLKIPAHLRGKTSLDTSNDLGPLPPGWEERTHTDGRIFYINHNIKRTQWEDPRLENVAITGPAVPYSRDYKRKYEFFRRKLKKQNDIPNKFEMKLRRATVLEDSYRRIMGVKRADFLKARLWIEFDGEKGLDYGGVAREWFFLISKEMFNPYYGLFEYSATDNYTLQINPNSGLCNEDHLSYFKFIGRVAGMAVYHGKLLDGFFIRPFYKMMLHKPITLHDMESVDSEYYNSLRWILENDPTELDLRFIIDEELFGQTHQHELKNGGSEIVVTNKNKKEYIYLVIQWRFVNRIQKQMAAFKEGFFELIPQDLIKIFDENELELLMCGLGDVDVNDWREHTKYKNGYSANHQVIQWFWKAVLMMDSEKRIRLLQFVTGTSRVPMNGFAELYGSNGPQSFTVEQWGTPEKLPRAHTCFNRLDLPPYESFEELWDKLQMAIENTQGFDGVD

HPV16 E2 wild type (E2-WT), stably expressed in cells (from UniProt P03120 1-365)
binding [1]: binds
binding [2]: binds

HPV16 E2-S23D, stably expressed in cells (from UniProt P03120 1-365)
binding [1]: binds
binding [3]: binds
binding [2]: binds

His-E2-WT (amino acids 1-200), recombinant, phosphorylated by CK2 in vitro (from UniProt P03120 1-200) (domain or fragment)
binding [4]: no binding
